Measurements published in the supplement of paper PMC12067093, “Discovery and optimisation of a covalent ligand for TRIM25 and its application to targeted protein ubiquitination” (Chemical Science, 2025).
The list shows a part of the results.

By UniProt entry, the sequences of proteins in these tests, tags left out. Where a name states a change or a piece, a line headed by the entry shows the natural chain unless it says otherwise.
UniProt Q7Z6I6: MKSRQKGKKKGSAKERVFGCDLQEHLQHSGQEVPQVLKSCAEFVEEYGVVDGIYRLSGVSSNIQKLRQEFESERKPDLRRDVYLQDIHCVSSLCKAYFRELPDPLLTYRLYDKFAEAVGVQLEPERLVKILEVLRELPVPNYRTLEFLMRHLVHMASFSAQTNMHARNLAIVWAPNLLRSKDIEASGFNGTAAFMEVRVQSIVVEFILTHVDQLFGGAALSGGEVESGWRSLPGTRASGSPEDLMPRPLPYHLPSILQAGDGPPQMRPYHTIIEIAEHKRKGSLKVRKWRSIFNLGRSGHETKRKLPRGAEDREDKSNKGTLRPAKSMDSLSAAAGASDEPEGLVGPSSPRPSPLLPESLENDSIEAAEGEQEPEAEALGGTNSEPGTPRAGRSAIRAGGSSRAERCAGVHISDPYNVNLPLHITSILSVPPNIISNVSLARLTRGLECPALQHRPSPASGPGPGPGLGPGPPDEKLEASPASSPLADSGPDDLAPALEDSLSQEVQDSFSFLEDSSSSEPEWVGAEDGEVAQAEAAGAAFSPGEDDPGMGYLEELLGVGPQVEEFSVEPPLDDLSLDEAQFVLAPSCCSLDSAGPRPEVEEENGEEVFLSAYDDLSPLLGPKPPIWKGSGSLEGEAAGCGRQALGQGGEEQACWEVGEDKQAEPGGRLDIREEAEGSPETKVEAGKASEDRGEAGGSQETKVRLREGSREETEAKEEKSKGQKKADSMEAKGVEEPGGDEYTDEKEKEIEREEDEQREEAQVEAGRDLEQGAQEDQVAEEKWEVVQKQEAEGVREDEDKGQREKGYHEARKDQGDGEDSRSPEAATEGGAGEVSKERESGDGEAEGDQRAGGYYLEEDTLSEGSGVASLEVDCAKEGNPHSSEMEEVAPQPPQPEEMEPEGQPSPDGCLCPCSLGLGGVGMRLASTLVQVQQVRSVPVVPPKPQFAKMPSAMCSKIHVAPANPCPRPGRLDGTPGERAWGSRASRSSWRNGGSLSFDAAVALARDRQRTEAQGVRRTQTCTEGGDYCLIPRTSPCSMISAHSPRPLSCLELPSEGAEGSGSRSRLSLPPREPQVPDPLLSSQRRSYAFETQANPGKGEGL
UniProt Q92619: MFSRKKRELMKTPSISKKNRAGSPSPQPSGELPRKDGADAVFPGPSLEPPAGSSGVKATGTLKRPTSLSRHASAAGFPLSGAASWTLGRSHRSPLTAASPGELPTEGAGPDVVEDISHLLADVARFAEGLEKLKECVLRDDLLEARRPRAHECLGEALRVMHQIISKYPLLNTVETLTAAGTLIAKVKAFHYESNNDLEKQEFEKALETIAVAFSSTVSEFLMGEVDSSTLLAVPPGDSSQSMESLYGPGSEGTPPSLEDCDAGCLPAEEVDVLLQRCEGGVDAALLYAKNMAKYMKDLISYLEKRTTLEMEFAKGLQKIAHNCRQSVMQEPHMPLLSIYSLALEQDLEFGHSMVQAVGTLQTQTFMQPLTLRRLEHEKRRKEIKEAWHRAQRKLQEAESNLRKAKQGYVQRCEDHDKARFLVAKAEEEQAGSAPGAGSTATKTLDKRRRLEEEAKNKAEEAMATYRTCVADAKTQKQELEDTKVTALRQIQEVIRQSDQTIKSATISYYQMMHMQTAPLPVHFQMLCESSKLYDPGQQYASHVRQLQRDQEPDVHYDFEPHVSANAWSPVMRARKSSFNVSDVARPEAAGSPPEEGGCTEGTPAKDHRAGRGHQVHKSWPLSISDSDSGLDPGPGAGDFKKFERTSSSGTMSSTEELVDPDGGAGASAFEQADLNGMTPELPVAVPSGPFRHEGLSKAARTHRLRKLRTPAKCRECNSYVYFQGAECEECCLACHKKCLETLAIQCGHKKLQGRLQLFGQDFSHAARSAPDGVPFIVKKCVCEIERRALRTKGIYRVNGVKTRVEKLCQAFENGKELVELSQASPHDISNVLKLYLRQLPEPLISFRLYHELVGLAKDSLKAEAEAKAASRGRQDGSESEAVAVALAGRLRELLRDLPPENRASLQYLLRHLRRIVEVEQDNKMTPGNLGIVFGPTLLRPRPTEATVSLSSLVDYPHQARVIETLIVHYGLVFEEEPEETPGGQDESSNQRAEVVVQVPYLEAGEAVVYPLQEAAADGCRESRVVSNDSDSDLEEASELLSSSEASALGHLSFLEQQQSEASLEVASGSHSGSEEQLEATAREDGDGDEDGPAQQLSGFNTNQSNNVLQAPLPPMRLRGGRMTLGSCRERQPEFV
UniProt Q8WWN8: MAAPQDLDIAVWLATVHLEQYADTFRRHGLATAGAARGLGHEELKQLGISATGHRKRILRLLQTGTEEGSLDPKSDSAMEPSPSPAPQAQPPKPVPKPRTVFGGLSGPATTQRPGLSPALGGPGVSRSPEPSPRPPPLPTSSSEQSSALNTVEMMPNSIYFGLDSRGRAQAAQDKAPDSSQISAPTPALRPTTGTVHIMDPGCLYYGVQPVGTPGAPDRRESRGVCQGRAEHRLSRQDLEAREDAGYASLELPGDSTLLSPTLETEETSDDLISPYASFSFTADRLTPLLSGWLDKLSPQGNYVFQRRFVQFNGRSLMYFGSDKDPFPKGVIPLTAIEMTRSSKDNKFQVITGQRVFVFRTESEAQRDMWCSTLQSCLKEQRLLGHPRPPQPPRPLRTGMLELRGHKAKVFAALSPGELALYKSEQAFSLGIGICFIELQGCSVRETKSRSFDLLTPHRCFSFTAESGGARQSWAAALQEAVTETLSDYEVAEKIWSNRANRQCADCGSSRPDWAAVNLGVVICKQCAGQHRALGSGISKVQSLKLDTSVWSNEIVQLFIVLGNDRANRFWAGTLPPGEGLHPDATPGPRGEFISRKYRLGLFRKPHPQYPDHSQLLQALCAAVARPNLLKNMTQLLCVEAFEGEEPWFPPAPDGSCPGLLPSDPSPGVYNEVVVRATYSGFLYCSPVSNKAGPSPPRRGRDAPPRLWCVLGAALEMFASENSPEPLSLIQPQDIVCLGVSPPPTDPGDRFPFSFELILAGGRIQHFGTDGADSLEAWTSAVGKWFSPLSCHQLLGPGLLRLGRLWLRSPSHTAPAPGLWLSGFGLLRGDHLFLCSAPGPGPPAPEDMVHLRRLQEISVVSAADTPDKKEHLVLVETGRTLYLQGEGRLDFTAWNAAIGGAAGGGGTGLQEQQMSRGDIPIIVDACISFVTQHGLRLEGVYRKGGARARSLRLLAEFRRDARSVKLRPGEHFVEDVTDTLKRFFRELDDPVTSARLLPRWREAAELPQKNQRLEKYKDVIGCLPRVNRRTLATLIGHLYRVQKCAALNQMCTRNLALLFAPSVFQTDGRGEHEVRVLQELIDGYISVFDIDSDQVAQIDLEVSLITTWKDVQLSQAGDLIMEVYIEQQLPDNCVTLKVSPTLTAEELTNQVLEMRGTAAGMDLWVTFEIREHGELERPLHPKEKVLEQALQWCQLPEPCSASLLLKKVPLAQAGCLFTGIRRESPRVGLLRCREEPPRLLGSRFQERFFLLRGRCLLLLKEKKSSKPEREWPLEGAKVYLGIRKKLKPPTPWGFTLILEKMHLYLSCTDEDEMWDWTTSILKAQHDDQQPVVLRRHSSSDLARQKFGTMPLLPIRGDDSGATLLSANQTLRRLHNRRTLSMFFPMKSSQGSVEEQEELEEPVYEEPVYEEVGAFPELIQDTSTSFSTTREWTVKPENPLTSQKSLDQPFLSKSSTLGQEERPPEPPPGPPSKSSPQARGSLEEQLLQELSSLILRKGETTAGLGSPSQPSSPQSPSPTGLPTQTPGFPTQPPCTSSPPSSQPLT
UniProt Q92747, whole entry, looked up: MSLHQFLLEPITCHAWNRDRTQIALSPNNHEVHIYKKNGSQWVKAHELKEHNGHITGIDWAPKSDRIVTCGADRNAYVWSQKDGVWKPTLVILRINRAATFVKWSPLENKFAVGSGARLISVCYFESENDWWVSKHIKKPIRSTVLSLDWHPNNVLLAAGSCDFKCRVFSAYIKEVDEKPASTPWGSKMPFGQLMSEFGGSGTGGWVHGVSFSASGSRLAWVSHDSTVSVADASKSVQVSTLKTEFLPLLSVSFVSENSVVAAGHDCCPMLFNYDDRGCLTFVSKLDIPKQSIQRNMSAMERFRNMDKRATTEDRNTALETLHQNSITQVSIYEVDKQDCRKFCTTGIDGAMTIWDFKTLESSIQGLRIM
UniProt P98171: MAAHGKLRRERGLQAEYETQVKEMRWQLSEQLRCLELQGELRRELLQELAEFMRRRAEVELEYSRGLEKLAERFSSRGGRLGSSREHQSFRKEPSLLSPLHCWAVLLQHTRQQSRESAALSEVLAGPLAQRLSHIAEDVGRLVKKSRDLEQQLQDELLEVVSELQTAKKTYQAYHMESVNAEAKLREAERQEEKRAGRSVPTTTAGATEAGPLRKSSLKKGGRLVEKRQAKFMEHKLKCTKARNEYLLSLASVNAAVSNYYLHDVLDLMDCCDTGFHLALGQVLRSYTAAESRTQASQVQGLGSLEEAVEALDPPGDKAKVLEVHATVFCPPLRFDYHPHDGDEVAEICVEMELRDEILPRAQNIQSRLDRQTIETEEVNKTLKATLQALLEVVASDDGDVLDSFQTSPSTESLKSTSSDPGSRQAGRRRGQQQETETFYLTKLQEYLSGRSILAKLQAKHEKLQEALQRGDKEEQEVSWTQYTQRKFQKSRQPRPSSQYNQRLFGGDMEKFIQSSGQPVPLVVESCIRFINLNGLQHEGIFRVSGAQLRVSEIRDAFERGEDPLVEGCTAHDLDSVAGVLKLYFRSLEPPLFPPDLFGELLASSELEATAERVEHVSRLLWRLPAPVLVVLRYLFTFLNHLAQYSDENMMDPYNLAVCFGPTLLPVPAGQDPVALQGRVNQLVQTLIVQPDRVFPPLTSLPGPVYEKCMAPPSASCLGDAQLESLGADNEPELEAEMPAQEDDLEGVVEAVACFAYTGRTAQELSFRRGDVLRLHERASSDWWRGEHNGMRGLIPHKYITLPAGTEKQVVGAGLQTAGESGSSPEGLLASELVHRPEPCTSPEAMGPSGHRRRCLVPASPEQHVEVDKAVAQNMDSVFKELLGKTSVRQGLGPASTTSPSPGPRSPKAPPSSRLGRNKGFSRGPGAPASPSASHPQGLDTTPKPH
UniProt O95376: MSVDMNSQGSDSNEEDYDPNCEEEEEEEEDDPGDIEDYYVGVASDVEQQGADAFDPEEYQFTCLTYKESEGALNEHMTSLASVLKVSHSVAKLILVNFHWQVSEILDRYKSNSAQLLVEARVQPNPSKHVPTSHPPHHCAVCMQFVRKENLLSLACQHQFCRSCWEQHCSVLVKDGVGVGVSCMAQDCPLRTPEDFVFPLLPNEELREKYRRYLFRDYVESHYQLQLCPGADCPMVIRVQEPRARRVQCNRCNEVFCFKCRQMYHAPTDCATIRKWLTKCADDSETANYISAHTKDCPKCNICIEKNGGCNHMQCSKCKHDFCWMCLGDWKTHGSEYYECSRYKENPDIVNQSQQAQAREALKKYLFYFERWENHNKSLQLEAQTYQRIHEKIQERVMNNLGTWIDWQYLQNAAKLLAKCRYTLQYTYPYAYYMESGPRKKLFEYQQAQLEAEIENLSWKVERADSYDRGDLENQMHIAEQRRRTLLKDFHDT
UniProt Q92888: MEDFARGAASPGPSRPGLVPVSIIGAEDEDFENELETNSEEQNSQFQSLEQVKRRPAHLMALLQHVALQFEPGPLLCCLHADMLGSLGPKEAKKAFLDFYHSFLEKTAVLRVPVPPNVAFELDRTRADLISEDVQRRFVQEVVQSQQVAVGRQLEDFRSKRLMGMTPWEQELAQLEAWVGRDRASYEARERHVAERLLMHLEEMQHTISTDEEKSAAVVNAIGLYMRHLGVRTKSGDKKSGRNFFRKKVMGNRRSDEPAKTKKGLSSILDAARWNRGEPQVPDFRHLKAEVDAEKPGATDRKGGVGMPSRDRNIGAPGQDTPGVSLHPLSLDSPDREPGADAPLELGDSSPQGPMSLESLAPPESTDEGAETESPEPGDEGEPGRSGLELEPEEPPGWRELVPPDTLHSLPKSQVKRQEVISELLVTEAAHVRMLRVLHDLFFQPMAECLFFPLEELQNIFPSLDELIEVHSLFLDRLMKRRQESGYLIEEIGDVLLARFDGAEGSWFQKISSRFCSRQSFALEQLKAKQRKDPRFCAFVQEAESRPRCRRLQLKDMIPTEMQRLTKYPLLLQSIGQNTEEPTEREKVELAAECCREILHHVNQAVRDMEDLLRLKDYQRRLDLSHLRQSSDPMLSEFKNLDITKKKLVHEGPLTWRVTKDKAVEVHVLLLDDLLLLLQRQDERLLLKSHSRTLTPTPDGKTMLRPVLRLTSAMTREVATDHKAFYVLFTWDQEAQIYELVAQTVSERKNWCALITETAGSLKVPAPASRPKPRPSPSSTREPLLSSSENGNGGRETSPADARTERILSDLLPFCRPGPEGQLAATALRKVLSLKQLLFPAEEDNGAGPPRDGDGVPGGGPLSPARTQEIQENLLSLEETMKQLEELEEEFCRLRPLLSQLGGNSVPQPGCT

Compound: CC1Cc2ccccc2N1C(=O)C1CCCN(C1)C(=O)CCl (mixture of isomers) [TRIM25 ligand 11 (diastereomer mixture)]
Assay: probe-labelled cysteine peptide fold change vs DMSO (competition) (log2 fold change); higher = less target engagement (more negative = stronger competition)
Conditions: THP-1, incubation time: 4 h
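Note: competitive chemoproteomic profiling in live THP-1 cells with an iodoacetamide desthiobiotin (IA-DTB) probe, comparing probe-labelled peptide intensities in compound-treated cells against DMSO-treated controls.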

Target | probe-labelled cysteine peptide fold change (10 µM) | probe-labelled cysteine peptide fold change (50 µM)
ARL14EP_Q8N8R7_17_TTNECHK (UniProt Q8N8R7) | 0.0006 | 0.0257
ARHGEF2_Q92974_478_KLIHDGCLLWK (UniProt Q92974) | -0.223 | -0.0788
ARHGAP30_Q7Z6I6_1021_TQTCTEGGDYCLIPR (UniProt Q7Z6I6) | -0.0997 | -0.199
ARHGAP26_Q9UNA1_767_ALYACK (UniProt Q9UNA1) | -0.0175 | 0.0363
APRT_P07741_83_GFLFGPSLAQELGLGCVLIR (UniProt P07741) | 0.21 | -0.0847
ARHGEF11_O15085_402_GVLCEAQEAAMPEIQEQIHDYR (UniProt O15085) | -0.212 | -0.509
ARHGAP45_Q92619_739+747_CLETLAIQCGHK (UniProt Q92619) | 0.0611 | -0.0404
ARHGEF12_Q9NZN5_1128_TVWQDLICR (UniProt Q9NZN5) | -0.028 | 0.106
ARHGAP45_Q92619_528_SATISYYQMMHMQTAPLPVHFQMLCESSK (UniProt Q92619) | -0.132 | -0.236
ARHGEF11_O15085_866_FQLFMQEAESHPQCR (UniProt O15085) | 0.187 | 0.0513
ARHGAP17_Q68EM7_53_RLVACFQGQHGTDAER (UniProt Q68EM7) | 0.0321 | -0.0173
ARAP3_Q8WWN8_835_GDHLFLCSAPGPGPPAPEDMVHLR (UniProt Q8WWN8) | 0.0134 | -0.0903
ARHGEF18_Q6ZSZ5_105_LSLDASAVDEEPCLPR (UniProt Q6ZSZ5) | -0.0696 | -0.0183
ARAP3_Q8WWN8_1215_KVPLAQAGCLFTGIR (UniProt Q8WWN8) | -0.0673 | -0.0217
ARHGAP17_Q68EM7_53_LVACFQGQHGTDAER (UniProt Q68EM7) | 0.242 | 0.0625
ARID2_Q68CP9_525_FACQWLNAHFEVNPDCSVSR (UniProt Q68CP9) | 0.0447 | 0.28
ARHGEF18_Q6ZSZ5_295_ECVNGHQLLQGTFSGPSSCPLCGKPFLSSASLK (UniProt Q6ZSZ5) | -0.0898 | -0.246
ARNT_P27540_265_RSFICR (UniProt P27540) | -0.00972 | 0.125
ARFGEF1_Q9Y6D6_1729_QETSSLACGLR (UniProt Q9Y6D6) | -0.0334 | 0.232
ARNT_P27540_269_CGSSSVDPVSVNR (UniProt P27540) | -0.209 | -0.255
ARPC1A_Q92747_70_IVTCGADR (UniProt Q92747) | -0.0434 | 0.00419

Target | probe-labelled cysteine peptide fold change (10 µM) | probe-labelled cysteine peptide fold change (50 µM)
ARHGEF12_Q9NZN5_784_EVLLGLKPCEIKR (UniProt Q9NZN5) | -0.139 | -0.114
ARHGEF16_Q5VV41_438_LPLLMDTLCLK (UniProt Q5VV41) | 0.0473 | 0.378
ARL1_P40616_80_CYYSNTDAVIYVVDSCDRDR (UniProt P40616) | 0.0986 | 0.0972
ARHGEF6_Q15052_25_TICDPEEFLK (UniProt Q15052) | -0.118 | -0.121
ARL1_P40616_95_CYYSNTDAVIYVVDSCDRDR (UniProt P40616) | -0.117 | 0.0101
ARFGEF1_Q9Y6D6_1685_LLDCLLESHR (UniProt Q9Y6D6) | 0.0498 | 0.0246
ARL14EP_Q8N8R7_75_SCCDPFNIHKK (UniProt Q8N8R7) | -0.099 | -0.0337
ARHGAP27_Q6ZUM4_703_DQVFGCALAALCER (UniProt Q6ZUM4) | -0.0677 | 0.0541
ARAP1_Q96P48_900_AVFPEGPCEEPLQLRK (UniProt Q96P48) | -0.0398 | -0.145
ARHGAP4_P98171_102_EPSLLSPLHCWAVLLQHTR (UniProt P98171) | 0.000307 | 0.0655
ARHGEF10L_Q9HCE6_988_TLLSLEDAVWASCGPR (UniProt Q9HCE6) | 0.22 | 0.124
ARMC6_Q6NXE6_484_DLGCHVELR (UniProt Q6NXE6) | -0.0195 | -0.0823
ARID2_Q68CP9_1814_CLYELNFTVQSK (UniProt Q68CP9) | -0.00908 | 0.103
ARHGEF2_Q92974_306_RQALCPGSTR (UniProt Q92974) | 0.0447 | 0.106
ARIH2_O95376_310_NGGCNHMQCSK (UniProt O95376) | -0.0326 | -0.0548
ARAF_P10398_192_TQHCDPEHFPFPAPANAPLQR (UniProt P10398) | 0.038 | 0.0935
ARHGEF2_Q92974_478_LIHDGCLLWK (UniProt Q92974) | 0.0428 | 0.0708
APOBEC3G_Q9HC16_160_IMNYDEFQHCWSK (UniProt Q9HC16) | 0.0416 | 0.0628
ARID2_Q68CP9_538_FACQWLNAHFEVNPDCSVSR (UniProt Q68CP9) | 0.126 | 0.237
ARL14EP_Q8N8R7_119_CTQIINGSVDVDTEDRQK (UniProt Q8N8R7) | 0.0209 | 0.301
ARHGAP25_P42331_89_AQQLYYYKDEEDTKPQGCMYLPGCTIK (UniProt P42331) | -0.122 | 0.0538

Part of the list above, set out differently:

| Target | probe-labelled cysteine peptide fold change (10 µM) | probe-labelled cysteine peptide fold change (50 µM) |
| --- | --- | --- |
| ARAP1_Q96P48_900_AVFPEGPCEEPLQLRK (UniProt Q96P48) | -0.0398 | -0.145 |
| ARHGAP4_P98171_102_EPSLLSPLHCWAVLLQHTR (UniProt P98171) | 0.000307 | 0.0655 |

The list goes on.

Target | probe-labelled cysteine peptide fold change (10 µM) | probe-labelled cysteine peptide fold change (50 µM)
ARHGAP4_P98171_349_FDYHPHDGDEVAEICVEMELRDEILPR (UniProt P98171) | 0.132 | 0.137
ARL14EP_Q8N8R7_5_MDPCSVGVQLR (UniProt Q8N8R7) | -0.366 | -0.333
ARFRP1_Q13795_141_QDVETCLSIPDIK (UniProt Q13795) | 0.0693 | 0.0395
ARHGEF40_Q8TER5_1233_EAGPELSSECR (UniProt Q8TER5) | 0.0578 | 0.0509
ARHGEF1_Q92888_892_QLEELEEEFCR (UniProt Q92888) | -0.151 | -0.0816
ARNT_P27540_336_FCLVAIGR (UniProt P27540) | -0.112 | 0.134
ARHGAP30_Q7Z6I6_965_IHVAPANPCPRPGR (UniProt Q7Z6I6) | 0.0724 | -0.157
ARL2_P36404_153_SHHWCIQGCSAVTGENLLPGIDWLLDDISSR (UniProt P36404) | 0.298 | 0.494
ARAF_P10398_538_ISSNCPK (UniProt P10398) | -0.0373 | 0.0231
APOH_P02749_124_CTEEGK (UniProt P02749) | 0.632 | 0.551
ARHGAP25_P42331_154_VAGTPCGVFGQR (UniProt P42331) | 0.0288 | -0.103
ARHGEF1_Q92888_752_KNWCALITETAGSLK (UniProt Q92888) | -0.437 | -0.331
ARHGEF1_Q92888_815_ILSDLLPFCRPGPEGQLAATALR (UniProt Q92888) | -0.0893 | -0.349
ARHGAP30_Q7Z6I6_654_QALGQGGEEQACWEVGEDK (UniProt Q7Z6I6) | -0.162 | -0.317
ARPC1B_O15143_26_DRTQIAICPNNHEVHIYEK (UniProt O15143) | -0.0132 | 0.0123
ARHGEF11_O15085_793_LFPNLPELIEIHNSWCEAMK (UniProt O15085) | 0.113 | -0.158
ARHGAP30_Q7Z6I6_1021_RTQTCTEGGDYCLIPR (UniProt Q7Z6I6) | 0.285 | 0.271
ARHGAP17_Q68EM7_53_LVACFQGQHGTDAERR (UniProt Q68EM7) | 0.0214 | -0.0123
ARMC8_Q8IUR7_264_CLTYMCR (UniProt Q8IUR7) | -0.0562 | 0.151
ARPC1A_Q92747_279_GCLTFVSK (UniProt Q92747) | 0.0993 | 0.129
ARIH2_O95376_233_DYVESHYQLQLCPGADCPMVIR (UniProt O95376) | -0.0979 | 0.0662

Target | probe-labelled cysteine peptide fold change (10 µM) | probe-labelled cysteine peptide fold change (50 µM)
ARPC1A_Q92747_340_NTALETLHQNSITQVSIYEVDKQDCR (UniProt Q92747) | -0.0748 | -0.137
ARMC7_Q9H6L4_144_SFLPELTATPVVQCMLR (UniProt Q9H6L4) | -0.0899 | 0.0296
ARAF_P10398_597_TQADELPACLLSAAR (UniProt P10398) | -0.183 | -0.217
ARNT_P27540_119_MTAYITELSDMVPTCSALAR (UniProt P27540) | 0.0314 | -0.155
ARF4_P18085_62_NICFTVWDVGGQDR (UniProt P18085) | 0.182 | 0.283
ARIH1_Q9Y4X5_304+307_QFCFNCGENWHDPVK (UniProt Q9Y4X5) | 0.0751 | -0.185
ARMC8_Q8IUR7_578_EQTLCILANIADGTTAK (UniProt Q8IUR7) | 0.102 | 0.0992
APOBEC3G_Q9HC16_261_HAELCFLDVIPFWK (UniProt Q9HC16) | 0.00279 | -0.116
APPL1_Q9UKG1_570_LTFPLPCVVLYATHQENKR (UniProt Q9UKG1) | 0.0343 | 0.102
ARMC6_Q6NXE6_121_FCDQCK (UniProt Q6NXE6) | -0.0445 | 0.00978
ARID1A_O14497_2043_EEEQDQGVSCNK (UniProt O14497) | 0.662 | 0.268
ARHGAP45_Q92619_136_ECVLRDDLLEAR (UniProt Q92619) | -0.0608 | -0.171
ARHGDIB_P52566_76_LTLVCESAPGPITMDLTGDLEALKK (UniProt P52566) | -0.0734 | 0.203
ARID1B_Q8NFD5_1919_SRDETPLCTIAHWQDSLAK (UniProt Q8NFD5) | 0.0694 | -0.184
ARHGAP17_Q68EM7_190_EEMDEAGNKVEQCK (UniProt Q68EM7) | -0.0498 | 0.0528
APPL1_Q9UKG1_341_YCFQITSFDGK (UniProt Q9UKG1) | 0.129 | 0.216
APPL1_Q9UKG1_616_ICDSVGLAK (UniProt Q9UKG1) | 0.191 | 0.123
ARHGEF2_Q92974_56_YTNGHLFTTISVSGMTMCYACNK (UniProt Q92974) | 0.207 | 0.11
ARIH2_O95376_323_HDFCWMCLGDWK (UniProt O95376) | 0.00756 | -0.0543
APTX_Q7Z2E3_333+336_CHECQQLLPSIPQLK (UniProt Q7Z2E3) | 0.159 | 0.0857
